Drawing on PMC11087256, this text covers binding for 2 substances.

Sequences of proteins named here, by UniProt entry; tags and fusion partners are left off.
UniProt Q7Z739: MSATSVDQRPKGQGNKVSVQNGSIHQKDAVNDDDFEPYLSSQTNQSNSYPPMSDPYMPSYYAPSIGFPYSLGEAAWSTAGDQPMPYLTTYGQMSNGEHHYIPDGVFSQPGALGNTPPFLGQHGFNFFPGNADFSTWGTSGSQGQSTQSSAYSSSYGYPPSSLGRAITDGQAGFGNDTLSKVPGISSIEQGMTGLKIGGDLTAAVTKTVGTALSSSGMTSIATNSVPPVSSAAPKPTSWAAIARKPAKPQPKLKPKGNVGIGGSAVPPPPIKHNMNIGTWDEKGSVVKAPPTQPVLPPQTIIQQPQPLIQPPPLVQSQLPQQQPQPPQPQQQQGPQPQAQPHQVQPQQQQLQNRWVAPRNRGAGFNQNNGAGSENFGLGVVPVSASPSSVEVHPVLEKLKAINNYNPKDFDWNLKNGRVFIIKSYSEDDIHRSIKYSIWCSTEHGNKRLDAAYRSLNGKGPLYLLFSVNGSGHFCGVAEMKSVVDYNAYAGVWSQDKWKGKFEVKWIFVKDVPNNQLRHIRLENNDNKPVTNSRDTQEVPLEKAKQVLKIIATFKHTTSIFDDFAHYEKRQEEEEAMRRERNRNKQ
UniProt Q92841: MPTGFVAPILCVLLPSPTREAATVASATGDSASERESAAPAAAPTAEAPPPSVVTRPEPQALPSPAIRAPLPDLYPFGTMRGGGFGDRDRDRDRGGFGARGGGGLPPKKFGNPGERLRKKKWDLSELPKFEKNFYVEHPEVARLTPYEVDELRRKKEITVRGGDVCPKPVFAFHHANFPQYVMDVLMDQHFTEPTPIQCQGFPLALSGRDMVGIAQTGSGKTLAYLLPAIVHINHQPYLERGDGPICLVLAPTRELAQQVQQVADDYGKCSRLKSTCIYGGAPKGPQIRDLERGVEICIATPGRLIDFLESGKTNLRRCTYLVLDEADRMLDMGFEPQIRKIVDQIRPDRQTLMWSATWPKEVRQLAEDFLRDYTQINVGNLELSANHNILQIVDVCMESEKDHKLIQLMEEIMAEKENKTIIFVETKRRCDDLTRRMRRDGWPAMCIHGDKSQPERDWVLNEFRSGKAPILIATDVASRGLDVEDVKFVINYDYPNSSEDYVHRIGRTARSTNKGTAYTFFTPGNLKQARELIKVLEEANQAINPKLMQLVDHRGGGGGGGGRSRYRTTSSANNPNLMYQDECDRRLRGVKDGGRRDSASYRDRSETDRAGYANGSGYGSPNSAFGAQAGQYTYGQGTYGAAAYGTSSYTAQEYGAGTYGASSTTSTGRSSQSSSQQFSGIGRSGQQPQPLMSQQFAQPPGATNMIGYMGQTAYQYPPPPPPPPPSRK
UniProt P17844: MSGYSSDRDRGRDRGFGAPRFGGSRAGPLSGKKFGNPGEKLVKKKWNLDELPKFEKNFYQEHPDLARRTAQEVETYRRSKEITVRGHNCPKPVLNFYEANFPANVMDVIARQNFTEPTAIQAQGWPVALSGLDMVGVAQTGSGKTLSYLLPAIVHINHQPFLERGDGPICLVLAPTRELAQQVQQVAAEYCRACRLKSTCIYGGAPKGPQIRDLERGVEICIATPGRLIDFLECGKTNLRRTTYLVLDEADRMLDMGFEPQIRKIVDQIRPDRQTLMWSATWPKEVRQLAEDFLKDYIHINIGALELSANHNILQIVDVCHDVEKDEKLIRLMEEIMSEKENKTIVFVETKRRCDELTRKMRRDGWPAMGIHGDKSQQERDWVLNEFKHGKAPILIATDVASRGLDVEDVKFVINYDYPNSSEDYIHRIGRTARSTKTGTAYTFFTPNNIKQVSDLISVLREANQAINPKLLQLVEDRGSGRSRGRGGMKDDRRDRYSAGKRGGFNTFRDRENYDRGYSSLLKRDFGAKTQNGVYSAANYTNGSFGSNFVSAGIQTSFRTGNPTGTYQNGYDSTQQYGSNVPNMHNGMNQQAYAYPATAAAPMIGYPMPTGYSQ

The target in one test is TAP-YTHDF3^WT (UniProt Q7Z739). Put plainly: affinity purification with mass spectrometry; HK1 cells stably expressing TAP-YTHDF3^WT (SBP-3HA); lysate extracted with excess streptavidin resin; eluate identified by mass spectrometry; TAP-vector as control.
The target of test [1] is YTH-domain family protein 3 (YTHDF3), endogenous (human (endogenous in HK1)) (UniProt Q7Z739). Kind of test: affinity purification with mass spectrometry; endogenous YTHDF3 partners precipitated from HK1 cell lysates by YTHDF3 antibodies coupled to protein A/G beads; identified by mass spectrometry.

These are yes or no findings as the source states them, for the method shown. Binding seen in cells or lysates may run through a third protein. Here binding means that the protein was enriched with, or labelled near, the bait; the list need not be complete.

“DDX17, endogenous (from UniProt Q92841 1-729)”: the binding result (with TAP-YTHDF3^WT; in test [1]) was “binds” throughout.
Regarding “DEAD-box protein 5 (DDX5), endogenous (from UniProt P17844 1-614)”, the binding result (with TAP-YTHDF3^WT; in test [1]) was “binds” in each case.
